Here are results for one molecule from patent publication US20250027945A1.

Protein sequences, listed by entry. Tags and fused reporters are not part of them. Lines headed by an entry give the natural chain unless they say otherwise; changes in a name come on top.
UniProt P34925: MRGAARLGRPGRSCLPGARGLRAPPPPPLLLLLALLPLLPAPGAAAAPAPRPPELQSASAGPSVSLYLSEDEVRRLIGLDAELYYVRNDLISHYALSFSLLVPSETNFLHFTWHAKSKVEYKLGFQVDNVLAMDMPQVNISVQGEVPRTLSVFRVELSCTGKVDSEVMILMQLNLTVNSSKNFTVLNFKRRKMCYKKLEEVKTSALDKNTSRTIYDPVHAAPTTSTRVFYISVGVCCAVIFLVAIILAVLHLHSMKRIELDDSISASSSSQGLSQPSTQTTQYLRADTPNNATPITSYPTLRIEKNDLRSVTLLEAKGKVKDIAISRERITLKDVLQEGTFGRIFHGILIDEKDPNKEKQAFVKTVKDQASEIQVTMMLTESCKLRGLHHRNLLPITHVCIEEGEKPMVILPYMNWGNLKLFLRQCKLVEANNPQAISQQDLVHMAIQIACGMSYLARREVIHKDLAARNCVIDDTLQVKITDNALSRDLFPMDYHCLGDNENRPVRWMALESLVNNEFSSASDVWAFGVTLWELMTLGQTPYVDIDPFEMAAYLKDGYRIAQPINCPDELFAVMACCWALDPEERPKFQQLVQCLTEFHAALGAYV

These are yes or no findings as the source states them, for the method shown. For part of these data: A result given as binding can be weak or reduced; the word gives no strength.

Assay [1] concerns the target human RYK on the surface of human tumor cell lines (human) (UniProt P34925). In words: flow cytometry, OVCAR4 cells (ovarian); grade from MFIR. Background: In flow cytometry, cells or beads pass a laser one at a time.
Assay [2] deals with mRYK with human Leader. In words: dot blot of recombinant RYK proteins (rabbit IgG tag) on nylon membrane, probed with the mAb, anti-mouse IgG-HRP.
Assay [3] deals with human RYK on the surface of human tumor cell lines (human) (UniProt P34925). In words: flow cytometry, HT144 cells (skin); grade from MFIR.
Assay [4] has the same target. In words: flow cytometry, SH-SY5Y cells (brain); grade from MFIR.
The target is the same in assay [5]. In words: flow cytometry, K562 cells (CML); grade from MFIR.
The target is the same in assay [6]. In words: flow cytometry, BT549 cells (breast); grade from MFIR.
For assay [7] the target is unchanged. In words: flow cytometry of dissociated primary triple-negative breast cancer PDX cells M0026 (T1), fluorochrome-conjugated 2-D11.
Assay [8] shares this target. In words: flow cytometry, SKBR3 cells (breast); grade from MFIR.
For assay [9] the target is unchanged. In words: flow cytometry, COLO 829 cells (melanoma); grade from MFIR.
The target is the same in assay [10]. In words: flow cytometry, H446 cells (lung); grade from MFIR.
For assay [11] the target is unchanged. In words: flow cytometry, T24 cells (bladder); grade from MFIR.
The target is the same in assay [12]. In words: flow cytometry, HS-578T cells (breast); grade from MFIR.
The target is the same in assay [13]. In words: flow cytometry, MINO cells (mantle); grade from MFIR.
The target is the same in assay [14]. In words: flow cytometry, T47-D cells (breast); grade from MFIR.
Assay [15] shares this target. In words: flow cytometry, A549 cells (lung); grade from MFIR.
Assay [16] shares this target. In words: flow cytometry, HT29 cells (colon); grade from MFIR.
For assay [17] the target is unchanged. In words: flow cytometry, H460 cells (lung); grade from MFIR.
For assay [18] the target is unchanged. In words: flow cytometry of viable tumor cell lines, 10 ug/ml 2-D11-Alexa647, 20 min on ice, against isotype control.
For assay [19] the target is unchanged. In words: flow cytometry on tumor cell lines, 2-D11-Alexa647.
Assay [20] shares this target. In words: flow cytometry, NCI H226 cells (lung); grade from MFIR.
Assay [21] has the same target. In words: flow cytometry, A673 cells (Ewings sarcoma); grade from MFIR.
The target is the same in assay [22]. In words: flow cytometry, HS683 cells (brain); grade from MFIR.
For assay [23] the target is unchanged. In words: flow cytometry, CAPAN-1 cells (pancreas); grade from MFIR.
The target is the same in assay [24]. In words: flow cytometry on cell lines, 10 ug/ml 2-D11-Alexa647.

B1: 2-D11 anti-human RYK mAb (antibody, V domains shown)
VH: QVQLKESGPGLVAPSQSLSITCSVSGFSLNDYGVNWVRQPPGKDLEWLGMIWGDGVTEYNSTLKSRLSISKDNSKSQVFLKMNNLQTEDTARYYCVRQGSGVWFAHWGQGTLVSVSS
VL: DVLVTQTPLSLPVSLGDQASISCRSSQTIVHSNGNTYLEWYLQKPGQSPKLLIYKVSNRFSGVPDRFSGSGSGTDFTLKISRVEAEDLGIYYCFQGSHVPYTFGGGTKLEIK
For the molecule B1, the binding entry is on record as “binds” in assay [1]; “no binding” in [2]; “binds” in assay [3]; “binds” in assay [4]; “binds” in [5]; “binds” in assay [6]. Further, the binding entry in assay [7], in assay [8], in [9], in assay [10], in assay [11] and in [12] was “binds” in each case. The binding entry in assay [13], in assay [14], in assay [15], in [16], in [17] and in assay [18] was “binds” each time. The binding entry in assay [19], in [20], in assay [21], in assay [22], in assay [23] and in assay [24] was “binds” throughout.
